Test results taken from the supplement of paper PMC10849652.
Some of the results follow.

Protein sequences, listed by entry. Tags and fused reporters are not part of them. Lines headed by an entry give the natural chain unless they say otherwise; changes in a name come on top.
UniProt Q96E09: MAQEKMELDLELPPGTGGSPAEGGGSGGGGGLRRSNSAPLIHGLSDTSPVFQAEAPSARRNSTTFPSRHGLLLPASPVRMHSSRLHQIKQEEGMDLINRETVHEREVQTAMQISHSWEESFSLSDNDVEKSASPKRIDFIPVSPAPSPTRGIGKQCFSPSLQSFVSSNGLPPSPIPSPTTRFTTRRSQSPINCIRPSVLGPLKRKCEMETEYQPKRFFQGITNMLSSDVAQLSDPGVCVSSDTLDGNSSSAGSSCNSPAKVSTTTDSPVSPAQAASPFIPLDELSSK
UniProt Q5RKV6, whole entry, looked up: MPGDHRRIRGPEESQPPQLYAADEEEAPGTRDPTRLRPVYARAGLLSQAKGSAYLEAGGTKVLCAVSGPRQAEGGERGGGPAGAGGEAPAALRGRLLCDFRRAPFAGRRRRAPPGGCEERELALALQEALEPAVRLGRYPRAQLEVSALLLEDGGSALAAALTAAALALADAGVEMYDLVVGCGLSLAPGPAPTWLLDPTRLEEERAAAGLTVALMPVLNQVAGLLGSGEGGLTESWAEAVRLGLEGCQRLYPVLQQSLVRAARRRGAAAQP
UniProt Q93063: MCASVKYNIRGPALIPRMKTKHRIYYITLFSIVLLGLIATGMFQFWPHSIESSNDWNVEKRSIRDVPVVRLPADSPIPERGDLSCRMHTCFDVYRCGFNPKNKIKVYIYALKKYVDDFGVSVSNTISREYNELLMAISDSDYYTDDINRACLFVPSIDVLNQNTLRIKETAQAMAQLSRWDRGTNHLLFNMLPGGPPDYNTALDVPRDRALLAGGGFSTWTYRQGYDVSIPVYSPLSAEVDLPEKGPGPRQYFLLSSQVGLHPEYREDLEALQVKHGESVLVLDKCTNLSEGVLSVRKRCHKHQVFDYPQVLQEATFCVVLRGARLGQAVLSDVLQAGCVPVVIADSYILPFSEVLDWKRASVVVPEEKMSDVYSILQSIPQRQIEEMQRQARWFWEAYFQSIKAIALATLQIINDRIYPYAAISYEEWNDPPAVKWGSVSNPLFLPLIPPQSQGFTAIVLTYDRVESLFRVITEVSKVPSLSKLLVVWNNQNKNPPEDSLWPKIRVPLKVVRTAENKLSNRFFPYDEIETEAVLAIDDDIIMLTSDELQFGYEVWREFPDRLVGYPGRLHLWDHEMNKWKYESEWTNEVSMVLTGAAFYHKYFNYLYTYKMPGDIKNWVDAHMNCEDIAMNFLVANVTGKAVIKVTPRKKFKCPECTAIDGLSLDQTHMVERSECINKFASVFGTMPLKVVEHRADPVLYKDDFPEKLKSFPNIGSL
UniProt Q9BPY3: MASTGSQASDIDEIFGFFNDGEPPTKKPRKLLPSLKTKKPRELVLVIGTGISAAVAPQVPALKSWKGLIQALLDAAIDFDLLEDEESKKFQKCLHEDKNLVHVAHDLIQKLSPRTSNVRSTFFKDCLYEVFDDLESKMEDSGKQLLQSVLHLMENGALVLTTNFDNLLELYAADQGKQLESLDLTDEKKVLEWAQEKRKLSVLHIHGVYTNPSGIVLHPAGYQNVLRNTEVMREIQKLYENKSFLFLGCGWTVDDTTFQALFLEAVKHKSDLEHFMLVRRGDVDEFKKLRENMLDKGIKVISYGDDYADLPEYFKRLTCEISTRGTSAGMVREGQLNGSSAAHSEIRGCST
UniProt Q8TAV0: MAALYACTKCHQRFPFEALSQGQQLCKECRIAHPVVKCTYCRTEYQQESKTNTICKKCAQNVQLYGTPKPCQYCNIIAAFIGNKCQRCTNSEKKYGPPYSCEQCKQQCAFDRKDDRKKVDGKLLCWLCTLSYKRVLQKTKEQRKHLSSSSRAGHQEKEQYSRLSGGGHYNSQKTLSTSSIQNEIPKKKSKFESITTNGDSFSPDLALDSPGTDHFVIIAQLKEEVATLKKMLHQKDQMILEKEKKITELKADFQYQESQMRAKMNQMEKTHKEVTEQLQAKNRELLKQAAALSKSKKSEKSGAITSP
UniProt Q5T8I3: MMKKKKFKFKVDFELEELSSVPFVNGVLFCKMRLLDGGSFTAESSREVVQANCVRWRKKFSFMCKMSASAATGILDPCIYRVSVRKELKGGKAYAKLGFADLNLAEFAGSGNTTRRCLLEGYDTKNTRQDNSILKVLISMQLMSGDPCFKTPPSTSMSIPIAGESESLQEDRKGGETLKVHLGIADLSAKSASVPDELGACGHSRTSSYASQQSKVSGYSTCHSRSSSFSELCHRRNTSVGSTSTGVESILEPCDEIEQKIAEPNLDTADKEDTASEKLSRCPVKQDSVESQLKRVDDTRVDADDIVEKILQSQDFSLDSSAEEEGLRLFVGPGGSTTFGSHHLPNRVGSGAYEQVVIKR
UniProt Q5BKY9: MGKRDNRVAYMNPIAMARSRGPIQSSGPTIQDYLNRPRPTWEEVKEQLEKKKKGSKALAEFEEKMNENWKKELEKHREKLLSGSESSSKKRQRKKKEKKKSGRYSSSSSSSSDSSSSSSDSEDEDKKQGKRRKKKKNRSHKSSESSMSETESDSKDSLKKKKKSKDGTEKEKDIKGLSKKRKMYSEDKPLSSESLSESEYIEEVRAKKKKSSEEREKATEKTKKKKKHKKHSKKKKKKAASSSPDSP
UniProt Q9Y624, whole entry, looked up, stated change not applied: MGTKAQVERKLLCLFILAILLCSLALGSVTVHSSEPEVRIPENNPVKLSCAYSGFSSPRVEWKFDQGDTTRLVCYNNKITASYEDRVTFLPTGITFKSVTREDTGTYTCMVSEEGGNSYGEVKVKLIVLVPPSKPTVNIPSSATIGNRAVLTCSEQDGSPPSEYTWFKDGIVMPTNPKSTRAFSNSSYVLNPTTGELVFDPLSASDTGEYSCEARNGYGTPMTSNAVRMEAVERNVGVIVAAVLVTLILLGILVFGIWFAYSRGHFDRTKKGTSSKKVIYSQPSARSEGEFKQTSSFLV
UniProt Q14153: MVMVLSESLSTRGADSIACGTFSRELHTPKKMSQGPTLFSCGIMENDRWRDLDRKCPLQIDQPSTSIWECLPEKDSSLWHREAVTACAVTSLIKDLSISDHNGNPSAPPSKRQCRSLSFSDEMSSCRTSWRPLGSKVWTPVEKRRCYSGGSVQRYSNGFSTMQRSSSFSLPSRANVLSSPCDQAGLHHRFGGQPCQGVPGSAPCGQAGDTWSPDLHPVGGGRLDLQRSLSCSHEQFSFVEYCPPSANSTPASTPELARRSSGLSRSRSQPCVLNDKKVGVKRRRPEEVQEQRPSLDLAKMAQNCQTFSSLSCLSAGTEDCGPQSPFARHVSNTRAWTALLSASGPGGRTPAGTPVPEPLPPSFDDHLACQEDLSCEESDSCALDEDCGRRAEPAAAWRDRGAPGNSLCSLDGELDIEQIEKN
UniProt Q9Y5Q0: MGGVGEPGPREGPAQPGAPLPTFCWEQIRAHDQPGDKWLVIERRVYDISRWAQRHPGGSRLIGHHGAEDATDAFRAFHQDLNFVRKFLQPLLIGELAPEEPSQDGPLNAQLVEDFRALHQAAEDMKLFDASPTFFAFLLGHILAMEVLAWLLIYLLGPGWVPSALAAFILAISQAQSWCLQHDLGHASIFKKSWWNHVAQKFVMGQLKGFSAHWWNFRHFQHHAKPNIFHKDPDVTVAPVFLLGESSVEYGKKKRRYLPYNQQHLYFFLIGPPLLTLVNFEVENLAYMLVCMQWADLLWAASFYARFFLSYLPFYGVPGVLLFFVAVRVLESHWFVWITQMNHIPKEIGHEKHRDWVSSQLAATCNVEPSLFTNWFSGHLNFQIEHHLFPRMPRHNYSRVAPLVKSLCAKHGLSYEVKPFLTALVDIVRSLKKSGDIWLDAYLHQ
UniProt Q6P2I3: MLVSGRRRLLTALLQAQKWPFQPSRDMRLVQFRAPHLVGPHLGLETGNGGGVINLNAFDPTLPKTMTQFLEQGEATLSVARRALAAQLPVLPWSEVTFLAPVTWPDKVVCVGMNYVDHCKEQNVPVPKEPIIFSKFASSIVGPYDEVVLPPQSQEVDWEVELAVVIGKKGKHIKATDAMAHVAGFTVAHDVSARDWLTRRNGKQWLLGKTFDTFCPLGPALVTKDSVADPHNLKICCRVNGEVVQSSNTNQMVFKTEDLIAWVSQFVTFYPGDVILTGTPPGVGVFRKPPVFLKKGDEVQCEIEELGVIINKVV
UniProt Q9H0Q0: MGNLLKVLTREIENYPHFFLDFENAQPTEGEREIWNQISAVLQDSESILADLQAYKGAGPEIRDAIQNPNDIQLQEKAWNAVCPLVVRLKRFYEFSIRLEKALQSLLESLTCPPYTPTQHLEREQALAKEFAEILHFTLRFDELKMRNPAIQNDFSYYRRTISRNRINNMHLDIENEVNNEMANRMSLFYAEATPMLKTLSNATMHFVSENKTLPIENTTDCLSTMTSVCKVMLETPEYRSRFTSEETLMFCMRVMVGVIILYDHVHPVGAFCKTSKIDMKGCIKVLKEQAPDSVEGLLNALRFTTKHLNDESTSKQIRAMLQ
UniProt P10768: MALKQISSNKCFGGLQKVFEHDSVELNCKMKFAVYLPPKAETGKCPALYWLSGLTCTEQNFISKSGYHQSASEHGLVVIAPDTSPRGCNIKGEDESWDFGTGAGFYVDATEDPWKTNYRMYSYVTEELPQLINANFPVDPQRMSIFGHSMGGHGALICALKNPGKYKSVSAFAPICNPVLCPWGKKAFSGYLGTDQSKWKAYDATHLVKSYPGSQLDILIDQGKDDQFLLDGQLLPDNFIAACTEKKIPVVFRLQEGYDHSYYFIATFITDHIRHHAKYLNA
UniProt Q9NUQ9: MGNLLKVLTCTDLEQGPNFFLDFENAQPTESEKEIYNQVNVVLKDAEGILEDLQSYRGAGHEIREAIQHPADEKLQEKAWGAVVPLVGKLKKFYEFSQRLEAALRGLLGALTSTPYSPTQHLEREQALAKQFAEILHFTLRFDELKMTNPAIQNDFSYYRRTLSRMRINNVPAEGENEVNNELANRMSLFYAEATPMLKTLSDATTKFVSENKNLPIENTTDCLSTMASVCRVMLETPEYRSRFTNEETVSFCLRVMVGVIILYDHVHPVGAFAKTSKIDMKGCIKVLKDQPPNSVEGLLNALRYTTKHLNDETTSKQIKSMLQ
UniProt Q9NY74: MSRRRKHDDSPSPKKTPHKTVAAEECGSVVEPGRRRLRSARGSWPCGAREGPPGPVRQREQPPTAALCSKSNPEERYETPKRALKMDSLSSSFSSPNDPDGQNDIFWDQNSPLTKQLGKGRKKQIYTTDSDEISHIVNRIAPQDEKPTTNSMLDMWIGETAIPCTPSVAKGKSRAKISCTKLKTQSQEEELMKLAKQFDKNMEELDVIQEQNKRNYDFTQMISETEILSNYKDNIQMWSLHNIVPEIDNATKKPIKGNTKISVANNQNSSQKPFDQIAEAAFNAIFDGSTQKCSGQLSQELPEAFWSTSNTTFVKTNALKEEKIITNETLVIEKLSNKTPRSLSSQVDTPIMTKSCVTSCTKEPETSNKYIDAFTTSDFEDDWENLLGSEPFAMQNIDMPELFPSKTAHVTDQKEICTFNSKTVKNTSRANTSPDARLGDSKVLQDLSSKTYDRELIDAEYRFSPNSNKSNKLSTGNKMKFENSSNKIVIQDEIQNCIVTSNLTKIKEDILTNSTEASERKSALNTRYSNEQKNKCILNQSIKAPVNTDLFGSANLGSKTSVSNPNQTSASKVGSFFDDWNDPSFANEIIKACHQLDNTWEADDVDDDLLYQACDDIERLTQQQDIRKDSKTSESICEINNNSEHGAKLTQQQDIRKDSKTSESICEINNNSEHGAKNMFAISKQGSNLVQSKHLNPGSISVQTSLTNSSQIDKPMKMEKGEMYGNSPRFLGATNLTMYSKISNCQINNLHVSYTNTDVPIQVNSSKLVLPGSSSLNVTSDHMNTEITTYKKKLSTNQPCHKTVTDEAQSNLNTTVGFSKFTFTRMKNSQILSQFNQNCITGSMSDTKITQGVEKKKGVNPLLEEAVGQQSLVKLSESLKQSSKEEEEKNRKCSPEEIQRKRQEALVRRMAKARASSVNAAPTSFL
UniProt Q9Y2C4: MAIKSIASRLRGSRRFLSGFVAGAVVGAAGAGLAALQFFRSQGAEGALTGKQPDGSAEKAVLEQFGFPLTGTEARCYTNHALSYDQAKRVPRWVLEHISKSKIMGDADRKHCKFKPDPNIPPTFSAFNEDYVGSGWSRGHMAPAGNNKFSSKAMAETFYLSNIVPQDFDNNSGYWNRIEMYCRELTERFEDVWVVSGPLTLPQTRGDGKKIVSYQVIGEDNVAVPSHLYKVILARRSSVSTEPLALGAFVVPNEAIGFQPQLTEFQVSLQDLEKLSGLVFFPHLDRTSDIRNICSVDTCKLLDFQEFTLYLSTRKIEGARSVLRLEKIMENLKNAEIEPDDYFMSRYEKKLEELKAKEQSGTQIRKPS

Tests used:
Test in all cases: log2 fold change, soluble protein after heating vs DMSO (PISA); higher = thermal stabilisation; K562 lysate, 10 uM; active = over 0.2 and 3.5 SD of the protein, either way, in both replicates (recomputed)
[1] = compound: NCC(=O)Nc1ccc(-n2nc(C(F)(F)F)cc2-c2ccc3c(ccc4ccccc43)c2)cc1
How it was run: (§1)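 Pellets of K562 cells were dounce-homogenised in PBS pH 7.4 with 1 mM MgCl2, and the crude extract was held at 1 mg/mL protein for a 30 min treatment with 10 μM compound. Aliquots were heated for 3 min over 48°C-58°C and pooled before NP-40 was added to 0.5% at 4°C. The supernatant from 21,000xg for 90 min was quantified by TMTpro 16plex LC-MS/MS with channel sums equalised. Values are reported from duplicates as log-two fold change in thermal stability relative to solvent controls.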

[2] = compound: O=C(CCCCCCC(=O)Nc1ccccc1)NO [vorinostat]
How it was run: as §1

[3] = compound: O=C(O)c1ccc2c(c1)nc(Nc1cccc(Cl)c1)c1ccncc12 [silmitasertib]
How it was run: as §1

[4] = compound: O=C1NC(=O)C(c2cnc3ccccn23)=C1c1cn2c3c(cc(F)cc13)CN(C(=O)N1CCCCC1)CC2
How it was run: as §1

[5] = compound: c1cn2cc(-c3ccc4cn[nH]c4c3)nc(Nc3ccc(N4CCOCC4)cc3)c2n1 [entospletinib]
How it was run: as §1

Target	log2 fold change [1]	log2 fold change [2]	log2 fold change [3]	log2 fold change [4]	log2 fold change [5]
EXOSC7 (UniProt Q15024)	inactive: -0.003	inactive: 0.158	inactive: 0.004	inactive: 0.015	inactive: 0.014
EXOSC8 (UniProt Q96B26)	inactive: -0.055	inactive: 0.092	inactive: 0.014	inactive: -0.01	inactive: -0.02
ESYT2 (UniProt H7BXI1)	inactive: -0.041	active: 0.243	inactive: -0.002	inactive: -0.002	inactive: 0.019
EVL isoform 2 (UniProt Q9UI08)	inactive: 0.024	inactive: -0.057	inactive: -0.19	inactive: 0.002	inactive: -0.053
FAM122A (UniProt Q96E09)	inactive: 0.011	inactive: 0.182	inactive: 0.036	inactive: -0.009	inactive: -0.047
EXOSC10 (UniProt Q01780)	inactive: -0.015	inactive: 0.012	inactive: 0.002	inactive: 0	inactive: 0.014
EXOSC3 (UniProt Q9NQT5)	inactive: 0.019	inactive: -0.191	inactive: 0.053	inactive: -0.044	inactive: -0.035
FAM160A2 isoform 2 (UniProt Q8N612)	inactive: 0.006	inactive: -0.043	inactive: 0.188	inactive: -0.006	inactive: -0.009
EXOSC6 (UniProt Q5RKV6)	inactive: 0.037	inactive: 0.169	inactive: -0.003	inactive: 0.019	inactive: -0.051
EXT2 isoform 3 (UniProt Q93063)	inactive: 0.059	inactive: 0.103	inactive: 0.101	inactive: -0.013	inactive: 0.037
EVI5 isoform 2 (UniProt O60447)	inactive: 0.032	inactive: -0.316	inactive: -0.037	inactive: 0.167	inactive: 0.048
EXOSC1 (UniProt Q9Y3B2)	inactive: -0.03	inactive: 0.151	inactive: -0.008	inactive: 0.04	inactive: -0.004
FAM118B (UniProt Q9BPY3)	inactive: 0	active: -0.273	inactive: 0.018	inactive: 0	inactive: -0.005
FAM76A isoform 3 (UniProt Q8TAV0)	inactive: 0.077	inactive: 0.124	inactive: 0.024	inactive: -0.075	inactive: 0.087
FAM111A (UniProt Q96PZ2)	inactive: 0.036	inactive: -0.364	inactive: 0.1	inactive: 0.048	inactive: 0.044
FAM207A (UniProt Q9NSI2)	inactive: -0.004	inactive: 0.024	inactive: -0.036	inactive: -0.057	inactive: -0.008
FAM102B (UniProt Q5T8I3)	inactive: -0.002	inactive: -0.259	inactive: -0.485	inactive: -0.05	inactive: -0.03
FAM133B (UniProt Q5BKY9)	inactive: -0.152	inactive: 0.162	inactive: -0.052	inactive: -0.043	inactive: -0.052
EXOC2 (UniProt Q96KP1)	inactive: -0.012	active: -0.361	inactive: 0.031	inactive: 0.022	inactive: 0.024
F11R (UniProt Q9Y624)	inactive: 0.022	inactive: 0.135	inactive: -0.005	inactive: -0.035	inactive: -0.011

Target	log2 fold change [1]	log2 fold change [2]	log2 fold change [3]	log2 fold change [4]	log2 fold change [5]
FAM53B (UniProt Q14153)	inactive: 0.056	inactive: -0.06	inactive: 0.049	inactive: 0.02	inactive: -0.003
ERICH1 (UniProt Q86X53)	inactive: -0.039	inactive: -0.024	inactive: -0.127	inactive: 0.077	inactive: -0.035
FADS3 (UniProt Q9Y5Q0)	inactive: 0.21	inactive: 0.247	inactive: -0.126	inactive: 0.004	inactive: -0.185
EYA3 (UniProt Q99504)	inactive: 0.03	inactive: 0.019	inactive: 0.018	inactive: 0.018	inactive: -0.002
FAHD2B (UniProt Q6P2I3)	inactive: 0.12	inactive: 0.209	inactive: -0.086	inactive: -0.033	inactive: -0.108
EXOC7 (UniProt Q9UPT5)	inactive: 0.062	inactive: -0.086	inactive: 0.025	inactive: 0.023	inactive: -0.004
FAIM isoform 2 (UniProt Q9NVQ4)	inactive: 0.055	inactive: 0.069	inactive: -0.094	inactive: 0.115	inactive: -0.036
FAM49A (UniProt Q9H0Q0)	inactive: 0.075	inactive: -0.274	inactive: 0.167	inactive: 0.218	inactive: -0.083
EXTL2 (UniProt Q9UBQ6)	inactive: -0.171	inactive: 0.189	inactive: -0.053	inactive: 0.01	inactive: -0.036
ERP29 (UniProt P30040)	inactive: -0.032	inactive: 0.114	inactive: -0.024	inactive: -0.006	inactive: -0.004
ESD (UniProt P10768)	inactive: 0.028	inactive: 0.009	inactive: -0.008	inactive: -0.004	inactive: 0.034
ETFDH (UniProt Q16134)	inactive: -0.007	inactive: 0.117	inactive: 0.035	inactive: -0.034	inactive: -0.003
FAM210B (UniProt Q96KR6)	inactive: -0.069	inactive: 0.056	inactive: 0.016	inactive: -0.051	inactive: -0.078
FAM49B (UniProt Q9NUQ9)	inactive: -0.029	inactive: 0.068	inactive: 0.018	inactive: 0.021	inactive: 0.011
FAM219A (UniProt Q8IW50)		inactive: 0.019	inactive: -0.029	inactive: 0.128	inactive: -0.101
ETAA1 (UniProt Q9NY74)	inactive: 0.012	inactive: 0.431	inactive: 0.76		inactive: 0.088
EXOG (UniProt Q9Y2C4)	inactive: -0.051	inactive: 0.056	inactive: 0.038		inactive: 0.339
ETV1 (UniProt P50549)		inactive: -0.137	inactive: 0.146		
EWSR1 (UniProt H7BY36)	inactive: 0.136			inactive: -0.047	inactive: 0.016
FAM110A (UniProt Q9BQ89)		inactive: -0.141	inactive: -0.112	inactive: -0.167	
